Results: the supplement of paper PMC10849652
The other results are listed elsewhere or left out.

The chains behind the UniProt entries cited, without tags or fusion partners. Where a name states a change or a piece, a line headed by the entry shows the natural chain unless it says otherwise.
UniProt Q5JSD2: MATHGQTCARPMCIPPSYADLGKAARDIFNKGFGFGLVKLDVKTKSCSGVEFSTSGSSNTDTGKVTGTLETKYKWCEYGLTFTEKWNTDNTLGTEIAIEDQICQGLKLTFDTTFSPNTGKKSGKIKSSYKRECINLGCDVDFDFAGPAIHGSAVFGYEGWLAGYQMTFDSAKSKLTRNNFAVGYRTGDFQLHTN
UniProt Q96J92: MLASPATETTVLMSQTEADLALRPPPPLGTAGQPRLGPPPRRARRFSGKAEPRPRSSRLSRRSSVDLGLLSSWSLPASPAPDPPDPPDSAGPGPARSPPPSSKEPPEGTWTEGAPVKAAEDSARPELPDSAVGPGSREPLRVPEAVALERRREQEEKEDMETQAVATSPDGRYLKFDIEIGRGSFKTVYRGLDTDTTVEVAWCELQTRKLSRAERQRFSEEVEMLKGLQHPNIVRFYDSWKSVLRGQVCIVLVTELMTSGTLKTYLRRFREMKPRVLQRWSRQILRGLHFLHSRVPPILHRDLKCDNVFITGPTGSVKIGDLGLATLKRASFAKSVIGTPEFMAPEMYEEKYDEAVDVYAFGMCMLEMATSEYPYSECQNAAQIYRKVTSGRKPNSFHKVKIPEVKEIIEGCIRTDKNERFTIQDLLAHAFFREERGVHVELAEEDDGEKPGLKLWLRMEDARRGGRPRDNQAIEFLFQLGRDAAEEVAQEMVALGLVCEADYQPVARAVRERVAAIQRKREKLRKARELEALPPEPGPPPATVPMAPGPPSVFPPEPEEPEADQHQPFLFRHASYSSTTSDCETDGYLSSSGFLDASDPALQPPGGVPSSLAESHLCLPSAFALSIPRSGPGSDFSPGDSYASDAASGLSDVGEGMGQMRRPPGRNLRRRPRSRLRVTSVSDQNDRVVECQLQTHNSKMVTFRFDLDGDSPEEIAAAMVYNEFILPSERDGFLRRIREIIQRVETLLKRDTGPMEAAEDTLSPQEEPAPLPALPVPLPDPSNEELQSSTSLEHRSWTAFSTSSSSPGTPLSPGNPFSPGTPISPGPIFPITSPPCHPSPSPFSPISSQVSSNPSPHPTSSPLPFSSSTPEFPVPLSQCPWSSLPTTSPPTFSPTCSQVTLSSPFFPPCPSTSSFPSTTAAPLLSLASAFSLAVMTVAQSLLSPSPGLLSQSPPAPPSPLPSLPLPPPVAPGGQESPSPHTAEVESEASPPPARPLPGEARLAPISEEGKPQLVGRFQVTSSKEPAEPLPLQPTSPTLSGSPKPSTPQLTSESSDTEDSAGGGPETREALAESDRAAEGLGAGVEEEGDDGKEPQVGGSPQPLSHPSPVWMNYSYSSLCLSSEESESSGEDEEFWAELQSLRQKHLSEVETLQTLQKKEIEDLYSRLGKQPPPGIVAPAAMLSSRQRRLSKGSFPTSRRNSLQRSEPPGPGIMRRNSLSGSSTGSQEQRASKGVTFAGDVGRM
UniProt P04275, whole entry, looked up: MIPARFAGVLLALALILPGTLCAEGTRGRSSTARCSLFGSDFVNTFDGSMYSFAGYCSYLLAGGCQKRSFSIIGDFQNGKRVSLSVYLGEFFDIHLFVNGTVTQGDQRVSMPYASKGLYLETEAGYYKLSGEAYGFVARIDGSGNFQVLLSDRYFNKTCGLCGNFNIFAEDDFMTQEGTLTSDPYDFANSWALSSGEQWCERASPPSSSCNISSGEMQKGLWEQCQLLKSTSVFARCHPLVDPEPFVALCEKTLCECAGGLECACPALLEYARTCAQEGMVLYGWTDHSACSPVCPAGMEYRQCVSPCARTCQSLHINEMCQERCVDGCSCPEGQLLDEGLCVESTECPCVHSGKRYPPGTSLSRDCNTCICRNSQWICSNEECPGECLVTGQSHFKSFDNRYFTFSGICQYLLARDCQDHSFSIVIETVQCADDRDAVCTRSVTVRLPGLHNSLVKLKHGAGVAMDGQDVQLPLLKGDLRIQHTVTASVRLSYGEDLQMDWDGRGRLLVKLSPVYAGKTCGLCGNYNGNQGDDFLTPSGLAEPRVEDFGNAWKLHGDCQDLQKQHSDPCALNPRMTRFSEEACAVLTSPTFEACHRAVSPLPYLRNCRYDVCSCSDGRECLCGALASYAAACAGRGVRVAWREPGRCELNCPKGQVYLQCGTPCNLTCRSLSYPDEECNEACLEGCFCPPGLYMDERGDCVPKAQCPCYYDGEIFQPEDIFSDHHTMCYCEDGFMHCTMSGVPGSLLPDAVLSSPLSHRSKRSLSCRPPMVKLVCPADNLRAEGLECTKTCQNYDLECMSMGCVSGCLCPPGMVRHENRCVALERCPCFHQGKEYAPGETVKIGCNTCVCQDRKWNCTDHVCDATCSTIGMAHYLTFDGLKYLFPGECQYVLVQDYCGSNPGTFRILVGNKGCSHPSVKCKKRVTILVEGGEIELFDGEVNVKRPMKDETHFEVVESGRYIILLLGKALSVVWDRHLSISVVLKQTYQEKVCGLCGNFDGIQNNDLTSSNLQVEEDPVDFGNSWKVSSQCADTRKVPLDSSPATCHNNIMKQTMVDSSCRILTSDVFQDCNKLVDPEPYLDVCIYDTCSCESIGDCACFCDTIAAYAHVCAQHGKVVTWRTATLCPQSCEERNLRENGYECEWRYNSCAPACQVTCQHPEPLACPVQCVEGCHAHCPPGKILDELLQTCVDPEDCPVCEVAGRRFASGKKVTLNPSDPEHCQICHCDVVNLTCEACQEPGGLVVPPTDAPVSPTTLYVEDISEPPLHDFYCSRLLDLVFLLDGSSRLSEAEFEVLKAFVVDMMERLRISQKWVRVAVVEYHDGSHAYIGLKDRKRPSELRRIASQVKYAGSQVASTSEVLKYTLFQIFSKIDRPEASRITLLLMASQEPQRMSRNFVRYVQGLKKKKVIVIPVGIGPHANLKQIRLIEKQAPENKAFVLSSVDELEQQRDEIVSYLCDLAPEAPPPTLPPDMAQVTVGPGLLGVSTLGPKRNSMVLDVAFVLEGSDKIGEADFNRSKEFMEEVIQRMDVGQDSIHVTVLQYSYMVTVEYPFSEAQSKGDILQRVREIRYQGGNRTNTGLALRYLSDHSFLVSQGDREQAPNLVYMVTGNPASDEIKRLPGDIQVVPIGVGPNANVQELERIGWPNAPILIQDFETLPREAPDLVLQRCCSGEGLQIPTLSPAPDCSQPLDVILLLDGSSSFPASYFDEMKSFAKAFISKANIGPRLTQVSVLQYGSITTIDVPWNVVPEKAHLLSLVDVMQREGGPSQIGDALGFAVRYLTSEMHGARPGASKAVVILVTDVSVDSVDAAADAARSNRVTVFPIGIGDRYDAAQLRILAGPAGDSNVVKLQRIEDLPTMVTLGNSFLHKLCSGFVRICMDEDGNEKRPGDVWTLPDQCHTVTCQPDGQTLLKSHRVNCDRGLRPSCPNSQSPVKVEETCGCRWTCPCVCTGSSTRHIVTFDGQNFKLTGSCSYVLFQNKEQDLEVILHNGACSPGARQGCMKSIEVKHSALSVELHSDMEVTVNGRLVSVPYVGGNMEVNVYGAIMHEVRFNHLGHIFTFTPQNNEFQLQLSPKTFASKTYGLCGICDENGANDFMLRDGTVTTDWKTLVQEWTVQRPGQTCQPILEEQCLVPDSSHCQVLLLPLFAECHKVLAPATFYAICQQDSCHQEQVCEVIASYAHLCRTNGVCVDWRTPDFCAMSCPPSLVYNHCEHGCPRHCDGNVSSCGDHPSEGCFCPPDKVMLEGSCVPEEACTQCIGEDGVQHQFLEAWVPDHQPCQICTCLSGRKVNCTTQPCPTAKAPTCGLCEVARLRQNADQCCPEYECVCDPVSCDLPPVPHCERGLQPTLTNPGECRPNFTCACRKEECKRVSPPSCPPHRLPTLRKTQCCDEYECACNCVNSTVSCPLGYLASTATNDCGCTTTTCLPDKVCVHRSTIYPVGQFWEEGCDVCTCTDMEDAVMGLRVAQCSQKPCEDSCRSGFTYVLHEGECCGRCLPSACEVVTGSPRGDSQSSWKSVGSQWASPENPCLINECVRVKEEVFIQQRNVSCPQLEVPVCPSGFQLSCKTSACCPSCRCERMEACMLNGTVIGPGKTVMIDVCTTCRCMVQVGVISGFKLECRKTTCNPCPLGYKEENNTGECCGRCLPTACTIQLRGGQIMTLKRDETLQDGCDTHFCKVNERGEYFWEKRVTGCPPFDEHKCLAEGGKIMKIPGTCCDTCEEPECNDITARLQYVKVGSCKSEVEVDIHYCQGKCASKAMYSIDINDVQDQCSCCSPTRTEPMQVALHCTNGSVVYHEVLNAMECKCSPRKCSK
UniProt Q96P53: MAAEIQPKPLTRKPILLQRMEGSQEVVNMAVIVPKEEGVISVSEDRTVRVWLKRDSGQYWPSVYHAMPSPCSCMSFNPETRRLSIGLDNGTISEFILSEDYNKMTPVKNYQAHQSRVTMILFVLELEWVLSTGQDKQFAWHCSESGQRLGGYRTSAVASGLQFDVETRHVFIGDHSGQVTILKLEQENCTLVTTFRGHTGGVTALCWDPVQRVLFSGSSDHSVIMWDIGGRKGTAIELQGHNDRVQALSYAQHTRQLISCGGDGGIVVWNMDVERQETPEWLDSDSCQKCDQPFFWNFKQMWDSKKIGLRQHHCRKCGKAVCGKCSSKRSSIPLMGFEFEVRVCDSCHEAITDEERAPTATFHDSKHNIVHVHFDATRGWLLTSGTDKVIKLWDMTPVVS
UniProt Q3ZAQ7: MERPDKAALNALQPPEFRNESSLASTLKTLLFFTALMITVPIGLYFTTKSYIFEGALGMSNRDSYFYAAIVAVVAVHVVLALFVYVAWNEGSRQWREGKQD
UniProt Q9H867: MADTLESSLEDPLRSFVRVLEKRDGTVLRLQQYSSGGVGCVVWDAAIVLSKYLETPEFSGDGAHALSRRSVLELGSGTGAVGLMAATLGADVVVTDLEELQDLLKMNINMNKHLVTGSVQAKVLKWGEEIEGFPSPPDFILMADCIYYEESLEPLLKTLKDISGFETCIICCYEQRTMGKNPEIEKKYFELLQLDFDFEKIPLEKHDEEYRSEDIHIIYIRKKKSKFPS
UniProt Q9H967: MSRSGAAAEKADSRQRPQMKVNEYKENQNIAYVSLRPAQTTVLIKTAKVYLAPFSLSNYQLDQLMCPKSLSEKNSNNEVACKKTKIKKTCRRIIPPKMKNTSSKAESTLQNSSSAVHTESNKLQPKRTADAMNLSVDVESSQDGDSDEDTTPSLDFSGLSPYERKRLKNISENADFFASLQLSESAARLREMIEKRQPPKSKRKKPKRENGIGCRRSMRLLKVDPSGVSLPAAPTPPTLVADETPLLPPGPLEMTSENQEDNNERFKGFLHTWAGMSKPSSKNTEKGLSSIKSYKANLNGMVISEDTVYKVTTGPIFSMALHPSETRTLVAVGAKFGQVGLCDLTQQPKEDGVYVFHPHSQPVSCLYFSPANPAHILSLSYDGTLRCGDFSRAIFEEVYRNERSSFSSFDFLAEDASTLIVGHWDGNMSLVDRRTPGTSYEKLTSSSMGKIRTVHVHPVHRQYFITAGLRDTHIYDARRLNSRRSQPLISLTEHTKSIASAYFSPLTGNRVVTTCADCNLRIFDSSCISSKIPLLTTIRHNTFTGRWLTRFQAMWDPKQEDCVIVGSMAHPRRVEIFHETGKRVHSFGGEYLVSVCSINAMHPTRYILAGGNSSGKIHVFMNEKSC
UniProt Q9P1Q0: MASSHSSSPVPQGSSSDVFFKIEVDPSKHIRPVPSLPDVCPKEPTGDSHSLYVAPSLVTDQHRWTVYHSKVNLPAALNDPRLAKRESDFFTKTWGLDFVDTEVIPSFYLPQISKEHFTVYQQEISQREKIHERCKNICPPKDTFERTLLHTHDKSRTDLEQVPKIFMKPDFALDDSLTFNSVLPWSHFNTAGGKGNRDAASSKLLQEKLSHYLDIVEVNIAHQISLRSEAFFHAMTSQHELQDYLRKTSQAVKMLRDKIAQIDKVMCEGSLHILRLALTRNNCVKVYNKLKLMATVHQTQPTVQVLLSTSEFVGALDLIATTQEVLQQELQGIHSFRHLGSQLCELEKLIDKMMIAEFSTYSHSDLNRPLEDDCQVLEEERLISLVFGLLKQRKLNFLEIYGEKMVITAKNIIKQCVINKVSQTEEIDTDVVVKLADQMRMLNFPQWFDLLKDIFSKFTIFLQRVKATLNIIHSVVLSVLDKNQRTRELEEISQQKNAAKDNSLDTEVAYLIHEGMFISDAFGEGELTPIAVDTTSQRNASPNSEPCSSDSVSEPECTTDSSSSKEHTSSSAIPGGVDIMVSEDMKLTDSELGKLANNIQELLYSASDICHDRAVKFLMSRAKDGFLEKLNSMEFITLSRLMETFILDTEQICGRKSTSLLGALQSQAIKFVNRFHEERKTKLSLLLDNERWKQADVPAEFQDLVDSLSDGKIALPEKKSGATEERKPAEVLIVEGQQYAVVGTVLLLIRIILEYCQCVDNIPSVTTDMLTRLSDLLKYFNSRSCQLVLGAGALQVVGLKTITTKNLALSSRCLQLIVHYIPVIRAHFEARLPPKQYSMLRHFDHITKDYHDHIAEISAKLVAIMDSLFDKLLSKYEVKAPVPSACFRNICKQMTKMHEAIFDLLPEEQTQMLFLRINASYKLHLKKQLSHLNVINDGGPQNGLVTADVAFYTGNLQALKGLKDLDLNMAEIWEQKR

compound: NC(=O)Nc1cc(-c2cccc(F)c2)sc1C(=O)N[C@H]1CCCNC1; test: log2 fold change, soluble protein after heating vs DMSO (PISA); higher = thermal stabilisation; K562 cells, 10 uM, 30 min; active = over 0.2 and 3.5 SD of the protein, either way, in both replicates (recomputed)
Outline: (§1)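 Values are thermal stability changes relative to control samples and are taken from duplicates. They are stated as log2 fold changes. Before quantification by TMTpro 16plex LC-MS/MS with equalised channel sums, K562 cells at 2×10^6 cells/mL were treated with 10 μM compound for 30 min, heated in aliquots for 3 min across 48°C-58°C, pooled, extracted in PBS with 0.5% NP-40 at 4°C, and centrifuged at 21,000xg for 90 min to give the soluble supernatant.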

log2 fold change, inactive:
VDAC2 (UniProt Q5JSD2) -0.086
VLDLR (UniProt P98155) -0.001
WARS1 (UniProt G3V3P2) -0.196
WARS1 (UniProt G3V5U1) -0.609
WWOX (UniProt Q9NZC7) 0.288
WDR46, A0A0G2JJL1 0.222
WDR4 isoform 3 (UniProt P57081) -0.103

compound: NC(=O)c1cnc(N[C@@H]2CCCC[C@@H]2N)nc1Nc1cccc(-n2nccn2)c1; test: as above
Outline: as §1

log2 fold change, inactive:
WNK4 (UniProt Q96J92) 0.059
WDR91 (UniProt A4D1P6) -0.122
WARS1 (UniProt G3V227) 0.045
WIPI2 isoform 6 (UniProt Q9Y4P8) 0.068
VWF (UniProt P04275) 0.023
VPS37C (UniProt A5D8V6) 0.081
WASF1 (UniProt Q92558) -0.107
WDR19 (UniProt Q8NEZ3) -0.275
WDFY2 (UniProt Q96P53) -0.307
VMA21 isoform 2 (UniProt Q3ZAQ7) 0.103
VEGFA (UniProt H0YBI8) -0.02
WDR75 (UniProt Q8IWA0) -0.004
VCPKMT (UniProt Q9H867) -0.162
WDR76 (UniProt Q9H967) -0.229
VPS54 (UniProt Q9P1Q0) 0.082
VWA3B isoform 6 (UniProt Q502W6) -0.271

compound: NC1(c2ccc(-c3nc4ccn5c(=O)[nH]nc5c4cc3-c3ccccc3)cc2)CCC1; test: as above
Outline: as §1

log2 fold change, inactive:
VDAC2 (UniProt Q5JSD1) -0.177
WDR91 (UniProt A4D1P6) 0.01
VDAC2 (UniProt Q5JSD2) -0.249
VLDLR (UniProt P98155) -0.262
VPS37C (UniProt A5D8V6) -0.07
WARS1 (UniProt G3V5U1) -0.142
WASF1 (UniProt Q92558) -0.138
WWOX (UniProt Q9NZC7) -0.055
WDR46, A0A0G2JJL1 0.515
XAB2 (UniProt Q9HCS7) 0.011
VMA21 isoform 2 (UniProt Q3ZAQ7) 0.004
VEGFA (UniProt H0YBI8) 0.293
WDR75 (UniProt Q8IWA0) 0.173
VPS35, A0A1W2PP10 0.098
VWA3B isoform 6 (UniProt Q502W6) -0.023
